Results of single-concentration screens

Amino acid sequences for entries named in this document (tags omitted). Residues count along the entry.
UniProt Q4DA54, 1-478: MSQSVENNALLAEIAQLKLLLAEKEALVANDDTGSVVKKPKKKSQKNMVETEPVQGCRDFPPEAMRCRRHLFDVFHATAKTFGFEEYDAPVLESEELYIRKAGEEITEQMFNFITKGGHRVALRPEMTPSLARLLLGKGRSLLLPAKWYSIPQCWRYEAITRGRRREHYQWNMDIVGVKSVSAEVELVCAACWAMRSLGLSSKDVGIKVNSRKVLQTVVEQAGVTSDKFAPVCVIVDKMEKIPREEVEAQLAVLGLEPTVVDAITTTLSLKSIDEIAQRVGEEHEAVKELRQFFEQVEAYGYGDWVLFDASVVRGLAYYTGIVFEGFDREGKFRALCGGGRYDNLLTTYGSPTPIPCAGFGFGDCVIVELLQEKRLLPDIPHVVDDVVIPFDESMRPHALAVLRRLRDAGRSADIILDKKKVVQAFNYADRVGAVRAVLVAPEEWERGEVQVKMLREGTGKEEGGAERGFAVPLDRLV
UniProt P9WNZ1, whole entry: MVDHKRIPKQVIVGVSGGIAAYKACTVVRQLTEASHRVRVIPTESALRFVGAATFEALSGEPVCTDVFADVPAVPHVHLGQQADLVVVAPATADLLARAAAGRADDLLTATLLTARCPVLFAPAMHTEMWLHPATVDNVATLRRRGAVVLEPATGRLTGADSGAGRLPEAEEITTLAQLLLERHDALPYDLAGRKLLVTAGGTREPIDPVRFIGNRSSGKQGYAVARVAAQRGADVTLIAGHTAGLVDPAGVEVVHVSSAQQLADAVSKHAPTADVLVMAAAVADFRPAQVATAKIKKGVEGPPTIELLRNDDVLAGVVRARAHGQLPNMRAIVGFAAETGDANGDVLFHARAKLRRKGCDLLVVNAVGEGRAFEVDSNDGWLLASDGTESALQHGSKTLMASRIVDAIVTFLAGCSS

The values are deposited in ChEMBL (CHEMBL3988442, “University of Dundee, Small-Polar-MMV Screening Library” (2021)).

Values are the deposited “Percent Effect”, in %.
How 0% and 100% were set is not recorded. Most values in the screen are low, and negative values occur.
Compounds were drawn at random from those tested, without regard to their results.
A dash means the value is not listed here; it may have been measured.

Toxoplasma: 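Assay of Toxoplasma gondii numbers, read through their beta-galactosidase reporter with a colour substrate. Concentration: 10 µM. Higher reads as fewer parasites (inferred from which compounds were picked for retests). Of about 67,000 compounds tested this way, about 260 (0.38%) reached 50% or more in at least one test.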
TcHisRS: 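Enzyme assay of histidyl-tRNA synthetase; the read-out is not stated. Target: Histidine-tRNA ligase, Trypanosoma cruzi CL Brener (UniProt Q4DA54). Compounds at 30 µM. Direction is inferred from retests: higher values go with stronger inhibition. Of about 69,000 compounds tested this way, about 31 (0.045%) reached 50% or more in at least one test.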
CoaBC: 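Enzyme assay of CoaBC with a phosphate dye (Biomol Green) read at 650 nm. Target: Coenzyme A biosynthesis protein CoaBC, Mycobacterium tuberculosis (UniProt P9WNZ1). Tested at 30 µM. Direction is inferred from only a few compounds that gave an IC50; most scored high, so higher reads as stronger inhibition. Most strong results did not repeat in a second test. About 67,000 compounds were tested under these conditions; 0.06% (about 40) showed 50% or more at least once.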
Leishmania in macrophages: 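Cell assay of Leishmania donovani living inside macrophages; the read-out is not stated. Compounds at 30 µM. The record gives no direction; compounds that gave an IC50 in retests scored well above the rest, so higher reads as stronger inhibition. About 69,000 compounds were tested under these conditions; 1.5% (about 1,000) showed 50% or more at least once.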

SMILES	Toxoplasma	TcHisRS	CoaBC	Leishmania in macrophages
CC(C)Cc1noc(CN2CCOC(Cn3cncn3)C2)n1 (stereo not shown)	9.478	4.215	4.722	-4.771
COc1cccc(Oc2nc(C)c(C(=O)O)s2)c1OC	-8.255	3	5.811	-6.653
O=C(COc1cccc(Cl)c1)N1CCOCC1c1ncon1 (stereo not shown)	37.28	-1.453	-5.006	1.654
Cc1cccc(CN2CCC3(CCN(c4ccccn4)C3)C2=O)c1 (stereo not shown)	-	3.759	2.66	-
Cc1nc(C2CCNC2)nc2c1CCC(=O)N2CC(C)C.Cl (stereo not shown)	-6.223	-	-	32.21
CCS(=O)(=O)N(C)C(=O)c1cc(C)n(-c2cccc(OC)c2)c1C	-	3.759	4.884	47.06
O=C(O)C(F)(F)F.[H][C@@]12CNC(=O)[C@@H](C)[C@]1([H])CN(Cc1ccc3c(c1)OCO3)C2	-1.131	-	-	13.86
CS(=O)(=O)CC(=O)N1C[C@@H]2COC[C@]2(c2nnc(C3CC3)o2)C1	-	1.622	0.3807	-
[H][C@@]12CN(Cc3c(C)noc3C)C[C@]1([H])OCCN2Cc1cnn(C)c1	13.19	-	-	5.113
O=C(c1ccncc1)N1Cc2ccccc2OC2(CCOCC2)C1	1.345	-0.5405	-5.278	23.61
Cc1c(C(C)NC(=O)Nc2ccc(F)c(F)c2)cnn1C (stereo not shown)	-4.309	8.427	-0.6036	5.179
CCOC(C)c1nc(CN2CCC(C3OCCO3)CC2)cs1 (stereo not shown)	-6.643	1.031	4.401	9.92
COCC1c2c(cnn2C)CCN1Cc1ccc(C)cc1 (stereo not shown)	-	0	5.764	-
Cc1nc(C)n(CC2CCCN(CCCOc3ccc(F)cc3)C2)n1 (stereo not shown)	-11.96	-92.55	0.3727	21.02
Cc1cnn(CC2CN(Cc3cccc(C(=O)N(C)C)c3)CCO2)c1 (stereo not shown)	1.376	-9.16	-1.687	34.89
CC(C)(C)c1nc(CN2CCCC2Cn2cncn2)no1 (stereo not shown)	-9.724	8.046	5.548	4.698
COc1ccc(CN2C[C@@H]3CCCO[C@@H]3[C@H](NS(C)(=O)=O)C2)cc1	-	2.703	-0.1269	-
CCc1n[nH]c(SCC(=O)N2CCc3[nH]nc(C4CCC4)c3C2)n1	3.559	10.93	4.645	10.69
c1ccc2oc(N3CCn4c(nnc4C4CC4)C3)nc2c1	0.9201	8.511	6.426	19.98
CC1CCCN(CCNC(=O)c2scnc2Cl)C1 (stereo not shown)	-37.1	4.624	2.216	32.55
O=C(O)C(F)(F)F.[H][C@@]12COC[C@]1(c1nnc(C)o1)CN(S(=O)(=O)c1cccnc1)C2	-8.684	-	-	25.78
Cc1cnn(C2CCCN(C(=O)c3cn(-c4ccccc4)nc3C)C2)c1 (stereo not shown)	-7.153	5.65	-0.7833	18.28
Cc1ccc(Cl)cc1N1CCC(CNC(=O)CCn2ccnn2)C1 (stereo not shown)	-12.86	5.344	3.627	22.11
CCc1c(-c2ccccc2)nc2c(c(C)c(C)n2CCN(C)C)c1N	38.57	7.772	2.344	100.7
Cc1ccc2c(c1)nc1n2[C@@H](CNC(=O)c2cncnc2)COC1	15.14	4.348	9.934	20.03
COCC(=O)N1CCC2(CCC2N(C)Cc2ccco2)CC1 (stereo not shown)	-	3.883	1.272	-
CC(C)CC(=O)N1CC[C@@H]2[C@H](CC1)N(Cc1cccnc1)CCS2(=O)=O	-	3.738	-4.691	-
COCC(=O)N1CCc2nc(C(=O)N(C)C)sc2CC1	-1.025	2.532	-	-0.4182
CC(C)(C)OC(=O)N1CCN(C(=O)c2cnn3c2OCCC3)CC1	-7.851	5.528	-1.805	35.81
Cn1cc(CCC(=O)NC(c2ccc(F)cc2)C(F)(F)F)cn1 (stereo not shown)	3.776	0.8772	-7.052	14.1
c1cncc(COCC2CN(Cc3cccnc3)Cc3ccnn3C2)c1 (stereo not shown)	-	5.435	1.402	-
Cn1cc(CCC(=O)N2C[C@@H]3CC[C@H](C2)N(Cc2ccccn2)C3)cn1	-	0.431	3.676	-
CCC(CC)(CN)NC(C)c1ccccc1 (stereo not shown)	-2.378	3.448	-2.903	23.64
CN(C)Cc1noc2c1CN(Cc1ccsc1)CC2.O=C(O)C(F)(F)F.O=C(O)C(F)(F)F	-2.713	-	-	11.14
CCNC(=O)[C@@H]1C[C@H](N)CN1Cc1ccc(Sc2ccc(C)cc2)o1	2.182	18.54	5.433	-2.33

Some entries from above, unchanged:

CC1CCCN(CCNC(=O)c2scnc2Cl)C1 (stereo not shown) gave Toxoplasma: -37.1%; TcHisRS: 4.624%; CoaBC: 2.216%; Leishmania in macrophages: 32.55%.
O=C(O)C(F)(F)F.[H][C@@]12COC[C@]1(c1nnc(C)o1)CN(S(=O)(=O)c1cccnc1)C2 gave Toxoplasma: -8.684%; Leishmania in macrophages: 25.78%.